Results reported in publication PMC8211912.
No constants are given. Whether binding was seen depends on the method and setting. In cells and extracts the contact can be indirect. These calls come from enrichment with a bait or labelling near it, and not all partners need be listed. Tags and fused reporters may be left off the sequences shown. Blank lines part the entries; values can stand above or below the binder they belong to.

Key:
[1] = biological target: T1, TAP (myc)-tagged AtSEC22 (Arabidopsis thaliana) (UniProt Q94AU2); experiment: affinity purification with mass spectrometry; Pull-down with an anti-c-myc epitope tag protein isolation kit (Miltenyi Biotec) from 2 g of two-week-old seedlings overexpressing the myc-tagged bait; beads analysed by shotgun LC-MS/MS
T1 sequence: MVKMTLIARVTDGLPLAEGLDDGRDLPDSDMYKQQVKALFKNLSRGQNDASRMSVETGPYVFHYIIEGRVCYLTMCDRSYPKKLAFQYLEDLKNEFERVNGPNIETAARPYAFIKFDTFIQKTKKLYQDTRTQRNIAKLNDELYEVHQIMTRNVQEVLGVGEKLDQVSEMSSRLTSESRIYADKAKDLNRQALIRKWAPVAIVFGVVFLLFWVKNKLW

[2] = biological target: T2, myc-tagged AtSYP32 (Arabidopsis thaliana) (UniProt Q9LK09); experiment: as above
T2 sequence: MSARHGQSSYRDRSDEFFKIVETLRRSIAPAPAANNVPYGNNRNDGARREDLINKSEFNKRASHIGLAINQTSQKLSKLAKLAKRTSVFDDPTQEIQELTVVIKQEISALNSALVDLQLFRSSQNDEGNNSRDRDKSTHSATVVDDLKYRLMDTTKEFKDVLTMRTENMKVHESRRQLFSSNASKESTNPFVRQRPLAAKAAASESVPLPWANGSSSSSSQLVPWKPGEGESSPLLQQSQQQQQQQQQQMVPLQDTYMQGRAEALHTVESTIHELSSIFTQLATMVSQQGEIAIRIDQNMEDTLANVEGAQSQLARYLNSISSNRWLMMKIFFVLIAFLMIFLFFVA

- binding [1]: binds
B1: AtSYP32 (endogenous) (protein, UniProt Q9LK09 1-347)
chain: T2 sequence

- binding [2]: binds
B2: AtSEC22 (endogenous) (protein, UniProt Q94AU2 1-218)
chain: T1 sequence
